Test [1] concerns the target PARP1, recombinant, full length (printed as GFP-PARP1 in the results) (UniProt P09874). Briefly: pull-down.
For test [2] the target is unchanged. The experiment in a line: HDX-MS.
Test [3] concerns the target PARP1-GFP (UniProt P09874). Briefly: co-IP.
The target in test [4] is PARP1-GFP (UniProt P09874). Briefly: proximity ligation.

Protein sequences, listed by entry. Tags and fused reporters are not part of them. Lines headed by an entry give the natural chain unless they say otherwise; changes in a name come on top.
UniProt P09874: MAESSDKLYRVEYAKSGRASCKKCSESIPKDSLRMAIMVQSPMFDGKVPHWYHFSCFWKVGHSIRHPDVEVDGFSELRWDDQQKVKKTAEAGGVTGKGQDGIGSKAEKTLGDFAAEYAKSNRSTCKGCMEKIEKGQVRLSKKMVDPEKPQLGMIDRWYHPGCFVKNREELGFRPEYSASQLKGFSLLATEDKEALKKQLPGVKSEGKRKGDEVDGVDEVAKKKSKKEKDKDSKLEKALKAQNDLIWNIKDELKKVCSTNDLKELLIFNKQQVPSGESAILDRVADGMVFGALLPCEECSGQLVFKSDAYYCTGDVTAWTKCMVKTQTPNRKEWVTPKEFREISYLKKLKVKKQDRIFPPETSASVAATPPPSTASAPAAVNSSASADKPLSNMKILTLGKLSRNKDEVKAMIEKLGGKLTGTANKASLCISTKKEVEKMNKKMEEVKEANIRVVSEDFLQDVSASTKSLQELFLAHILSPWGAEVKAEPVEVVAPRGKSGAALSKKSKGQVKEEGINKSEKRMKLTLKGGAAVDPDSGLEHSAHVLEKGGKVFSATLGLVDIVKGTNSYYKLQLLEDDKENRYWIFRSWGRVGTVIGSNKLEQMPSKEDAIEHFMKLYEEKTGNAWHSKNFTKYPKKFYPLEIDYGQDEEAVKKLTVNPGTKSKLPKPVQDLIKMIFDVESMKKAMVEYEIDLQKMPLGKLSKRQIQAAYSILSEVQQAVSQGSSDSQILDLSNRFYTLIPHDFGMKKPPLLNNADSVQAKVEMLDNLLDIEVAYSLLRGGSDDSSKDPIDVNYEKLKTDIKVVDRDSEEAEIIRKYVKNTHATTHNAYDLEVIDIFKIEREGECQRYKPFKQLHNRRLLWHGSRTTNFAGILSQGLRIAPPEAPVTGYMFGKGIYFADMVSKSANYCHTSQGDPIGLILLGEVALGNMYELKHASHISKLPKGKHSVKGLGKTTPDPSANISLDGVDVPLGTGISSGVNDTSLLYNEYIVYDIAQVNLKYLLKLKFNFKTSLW
UniProt Q9Y6I9: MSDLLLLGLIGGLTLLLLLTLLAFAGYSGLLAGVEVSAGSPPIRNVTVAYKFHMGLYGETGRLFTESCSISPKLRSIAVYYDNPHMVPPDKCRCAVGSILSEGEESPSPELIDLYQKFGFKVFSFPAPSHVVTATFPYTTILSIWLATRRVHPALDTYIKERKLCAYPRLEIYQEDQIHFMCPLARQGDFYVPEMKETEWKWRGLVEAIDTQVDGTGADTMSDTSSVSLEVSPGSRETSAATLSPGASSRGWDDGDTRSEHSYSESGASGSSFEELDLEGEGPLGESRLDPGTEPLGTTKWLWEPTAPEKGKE

These are yes or no findings as the source states them, for the method shown. For some assays here: In cells and extracts the contact can be indirect. Some binding calls cover weakened binding; strength is not graded here.

Turning to “TEX264 (34-313), recombinant (from UniProt Q9Y6I9 34-313) (domain or fragment)”, the binding entry in test [1] and in test [2] was “binds” throughout.
As to “TEX264 (endogenous) (from UniProt Q9Y6I9 1-313)”, the binding result in the test with PARP1-GFP [3] was “binds”.
“TEX264 fragment containing only the GyrI-like domain (34-185), recombinant (from UniProt Q9Y6I9 34-185) (domain or fragment)”: the binding result in test [1] is recorded as “no binding (tested: 2.5 µM)”.
“TEX264-272 (variant lacking the C-terminal region beyond S272) (from UniProt Q9Y6I9 1-272) (domain or fragment)”: in the test with PARP1-GFP [3], the binding entry was “no binding”.
With “TEX264^WT-V5 (from UniProt Q9Y6I9 1-313)”, the binding result in the test with PARP1-GFP [4] and in the test with PARP1-GFP [3] was “binds” throughout.
For “p97/VCP (endogenous) (from UniProt P55072 1-806)”, the binding result in the test with PARP1-GFP [3] is “binds”.

Source of the values: doi:10.64898/2025.12.11.692727.
